{"source": "paper PMC5653651", "biological_target": "ScNup82-Flag-TEV-ProtA (Saccharomyces cerevisiae) (UniProt P40368)", "test": "affinity co-purification of co-expressed proteins; ScNup82 complex from yeast co-expressing the four proteins, tandem: IgG beads, TEV protease, anti-Flag beads, Flag peptide", "note": "These are yes or no findings as the source states them, for the method shown. Some binding calls cover weakened binding; strength is not graded here."}
{"substance": "ScDyn2 (from UniProt Q02647 1-92)", "values": [{"measurement": "binding", "value": "binds"}]}
